{"source": "patent US20090311237A1", "about": "“Combination therapy using a soluble hyaluronidase and a bisphosphonate” (priority 2008, published 2009)", "assay": "Phase 1 Stage 1 clinical pharmacokinetics of SC ZA co-administered with rHuPH20", "format": "in vivo, human", "settings": "serum, individual subjects, listed as Zoledronic Acid", "method": "A pharmacokinetic study of zoledronic acid (ZA) co-administered with rHuPH20 in human subjects was conducted. The primary objective of the study was to determine the bioavailability of zoledronic acid dosed via subcutaneous (SC) co-administration with human recombinant hyaluronidase PH20 (rHuPH20). […] The patients were administered the prescribed dosage formulations as follows: Cohorts 1-5 were administered a single subcutaneous infusion in a dosage volume of 100 ml at a rate of 3 mL/min. […] The dosing solution is administered via needle or catheter into the SC space of the left anterior thigh (midway between the anterior iliac crest and the cephalad border of the patella). For cohorts 1-5, the dosing solutions were administered by a controlled rate infusion pump at approximately 3 mL/minute. […] The dosing solutions were administered by syringe push bolus injection. […] Serum concentration of ZA was determined using a qualified LC-MS-MS assay after derivatization with diazomethane (Zhu, L S et al. (2006) Rapid Commun. […] The assay range was from 2.0 to 400 ng/mL with a lower limit of quantitation (LLOQ) at 2.0 ng/mL. […] Non-compartmental analysis was used for derivation of primary and secondary pharmacokinetic (PK) parameters. […] Summary statistics (mean, standard deviation, and median) were calculated using JMP or Microsoft Excel.", "note": "Values joined by “and” are separate entries in the source; they are usually repeats but may differ in a detail not shown here. Equal entries are not always repeated. Further values from the same series stand in other lists."}
{"compound": "O=P(O)(O)C(O)(Cn1ccnc1)P(=O)(O)O", "note": "[ZA, 1-hydroxy-2-(1H-imidazol-1-yl)ethylidene-1,1-bisphosphonic acid]", "values": [{"measurement": "Zoledronic Acid Concentration", "setting": "ZA 0.25 mg SC infusion + 24000 Units rHuPH20, 0 h post infusion", "result": 5.04, "unit": "ng/mL"}, {"measurement": "Zoledronic Acid Concentration", "setting": "ZA 0.5 mg SC infusion + 24000 Units rHuPH20, 0 h post infusion", "result": 11.10, "unit": "ng/mL"}, {"measurement": "Zoledronic Acid Concentration", "setting": "ZA 0.5 mg SC infusion + 24000 Units rHuPH20, 10 min post infusion", "result": 13.30, "unit": "ng/mL"}, {"measurement": "Zoledronic Acid Concentration", "setting": "ZA 0.5 mg SC infusion + 24000 Units rHuPH20, 0.5 h post infusion", "result": 13.00, "unit": "ng/mL"}, {"measurement": "Zoledronic Acid Concentration", "setting": "ZA 0.5 mg SC infusion + 24000 Units rHuPH20, 1 h post infusion", "result": 13.70, "unit": "ng/mL"}, {"measurement": "Zoledronic Acid Concentration", "setting": "ZA 0.5 mg SC infusion + 24000 Units rHuPH20, 2 h post infusion", "result": "10.60 ng/mL and 11.50 ng/mL"}, {"measurement": "Zoledronic Acid Concentration", "setting": "ZA 0.5 mg SC infusion + 24000 Units rHuPH20, 4 h post infusion", "result": "6.02 ng/mL and 5.87 ng/mL"}, {"measurement": "Zoledronic Acid Concentration", "setting": "ZA 0.5 mg SC infusion + 24000 Units rHuPH20, 6 h post infusion", "result": "3.04 ng/mL and 2.53 ng/mL"}, {"measurement": "Zoledronic Acid Concentration", "setting": "ZA 0.5 mg SC infusion + 24000 Units rHuPH20, 8 h post infusion", "result": "1.34 ng/mL and 1.42 ng/mL"}, {"measurement": "Zoledronic Acid Concentration", "setting": "ZA 0.5 mg SC infusion + 24000 Units rHuPH20, 12 h post infusion", "result": "0.55 ng/mL and 0.56 ng/mL"}, {"measurement": "Zoledronic Acid Concentration", "setting": "ZA 1 mg SC infusion + 24000 Units rHuPH20, 0 h post infusion", "result": 17.90, "unit": "ng/mL"}, {"measurement": "Zoledronic Acid Concentration", "setting": "ZA 1 mg SC infusion + 24000 Units rHuPH20, 10 min post infusion", "result": 24.50, "unit": "ng/mL"}, {"measurement": "Zoledronic Acid Concentration", "setting": "ZA 1 mg SC infusion + 24000 Units rHuPH20, 0.5 h post infusion", "result": 28.00, "unit": "ng/mL"}, {"measurement": "Zoledronic Acid Concentration", "setting": "ZA 1 mg SC infusion + 24000 Units rHuPH20, 1 h post infusion", "result": 27.20, "unit": "ng/mL"}, {"measurement": "Zoledronic Acid Concentration", "setting": "ZA 1 mg SC infusion + 24000 Units rHuPH20, 2 h post infusion", "result": 17.70, "unit": "ng/mL"}, {"measurement": "Zoledronic Acid Concentration", "setting": "ZA 1 mg SC infusion + 24000 Units rHuPH20, 4 h post infusion", "result": 7.51, "unit": "ng/mL"}, {"measurement": "Zoledronic Acid Concentration", "setting": "ZA 1 mg SC infusion + 24000 Units rHuPH20, 6 h post infusion", "result": 3.76, "unit": "ng/mL"}, {"measurement": "Zoledronic Acid Concentration", "setting": "ZA 1 mg SC infusion + 24000 Units rHuPH20, 8 h post infusion", "result": 2.46, "unit": "ng/mL"}, {"measurement": "Zoledronic Acid Concentration", "setting": "ZA 1 mg SC infusion + 24000 Units rHuPH20, 12 h post infusion", "result": 0.96, "unit": "ng/mL"}, {"measurement": "Zoledronic Acid Concentration", "setting": "ZA 1 mg SC infusion + 24000 Units rHuPH20, 24 h post infusion", "result": 0.50, "unit": "ng/mL"}]}
